Primary screen of a compound library

Source: ChEMBL document CHEMBL3988442, “University of Dundee, Small-Polar-MMV Screening Library” (2021).

Each number is a percent effect as filed. How 0% and 100% were set is not recorded. Most values in the screen are low, and negative values occur. The compounds are a random part of those screened. A dash means the value is not listed here; it may have been measured.

A: 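Whole-cell assay for inhibitors of Mycobacterium tuberculosis growth, labelled Cornell in the record; the read-out is not stated. The concentration is filed as 10 mM, unlikely as a test dose, so the dose is not known. Higher means stronger inhibition (inferred from two other growth screens of the library). Of about 53,000 compounds tested this way, about 900 (1.7%) reached 50% or more in at least one test.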
B: 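Assay on Mycobacterium tuberculosis, filed only as a heat shock assay from Cornell; the read-out is not stated. The concentration is filed as 10 mM, unlikely as a test dose, so the dose is not known. Higher reads as stronger inhibition (inferred: compounds with an IC50 in retests scored well above the rest). About 69,000 compounds were tested under these conditions; 1.4% (about 930) showed 50% or more at least once.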

compound	A	B
Cc1noc(C)c1C(=O)N1CCC2(CCc3ccccc3C(=O)N2)C1 (stereo unspecified)	28.07%	-10.43%
CC(C)C(CNC(=O)Nc1cn[nH]c1)N1CCOCC1 (stereo unspecified)	-	-15.16%
Cc1noc(C)c1CC(=O)NCC(C)N1CCOCC1 (stereo unspecified)	29.75%	-5.175%
O=C1CN(Cc2nnc(-c3ccc(Br)o3)o2)CCN1	21.49%	51.83%
C[C@@H](NC(=O)c1cccn1C)c1c(-c2ccc(Cl)cc2)noc1C(=O)O	-	-3.721%
Br.Cc1ccc(OCCCSC2=NCCN2)cc1	-	-3.412%
Cc1cnn(C2CN(CC(=O)NCC3(c4ccccc4)CC3)C2)c1	-16.73%	5.302%
Cc1ccccc1OCCC(=O)N1CCCC(n2cncn2)C1 (stereo unspecified)	0.2565%	10.88%
Cc1nc2ccccn2c1CN1C[C@@H](CN(C)CCO)[C@@H](CO)C1	12.28%	-1.615%
O=C(N1CCCC1)N1CCOCC2(CCN(Cc3cccs3)C2)C1.O=C(O)C(F)(F)F (stereo unspecified)	-16.89%	-28.46%
N#Cc1ccc(N2CCCC2Cn2cccn2)nc1 (stereo unspecified)	-22.96%	14.12%
COc1ccc(C2CCCN2C(=O)NCCn2ccnc2)cc1OC (stereo unspecified)	-	6.254%
Cc1noc(CC2CCN(C(=O)C(c3ccccc3C)N(C)C)CC2)n1 (stereo unspecified)	32.13%	-2.776%
CCOC(=O)N1CCN(C(=O)Cn2ccc3ncccc3c2=O)CC1	-	-183.5%
CCOc1nn(CC)cc1-c1nnc(SCc2ccccn2)n1C	42.28%	-3.365%
CC(=O)c1cccc(OCC(=O)NS(=O)(=O)c2ccc(Br)s2)c1	-	-14.63%
Cn1cc(NC(=O)N2CCCC2c2ccccn2)ccc1=O (stereo unspecified)	0.7496%	1.026%
c1ccc(-c2nc3c(c(NCCCn4cncn4)n2)CCNCC3)nc1	-11.25%	8.8%
O=c1cc(N2CCCCC2)cnn1CCCn1cccn1	-7.503%	14.9%
COc1ccc(C(CC(=O)O)NC(=O)CCc2cccs2)cc1OC (stereo unspecified)	14.23%	-15.95%
Cc1ccn2ncc(C(=O)N3CCCC(c4cc(C)[nH]n4)C3)c2n1 (stereo unspecified)	-11.07%	-4.299%
Cc1cccc(CN2CCC3(CCN(Cc4ccccn4)C3)C2=O)c1.O=C(O)C(F)(F)F.O=C(O)C(F)(F)F (stereo unspecified)	1.967%	-19.97%
COCC1CC2(CCN(C(C)=O)CC2)CN1Cc1csc(C)n1.O=C(O)C(F)(F)F (stereo unspecified)	16.02%	-3.725%
CN(CC(=O)NCC(F)(F)F)C(=O)c1ccc(C(=O)OC(C)(C)C)cc1	-1.62%	-30.44%
CCn1nc(C)c(NC(=O)CN2CCN(C(C)=O)CC2)c1C	4.662%	7.086%
CNC(=O)Cc1coc(-c2ccc(F)cc2)n1	-	0.4715%
COC(=O)c1ccccc1C(=O)N(CCN(C)C)Cc1sccc1C	13.5%	-12.99%
Cc1nc(CN2CCCn3cnc(COC(C)C)c3C2)cs1.O=C(O)C(F)(F)F	3.319%	-2.557%
Cc1cc(CN2CCN(C(=O)C(C(C)C)n3cncn3)CC2)on1 (stereo unspecified)	10.79%	-38.97%
Cc1nc(CN(C)C2CCN(CCCOc3ccc(F)cc3)C2)no1 (stereo unspecified)	-	-32.17%
CC(C)=CCC/C(C)=C\CNCc1ccco1	29.73%	-6.823%
Cc1nc(CCC(=O)NCC(N)=O)cc(C2CCNCC2)n1	-68.56%	-1.596%
O=C(c1c[nH]nn1)N1CCN(C(c2ccccc2)C(F)(F)F)CC1 (stereo unspecified)	12.25%	-6.663%
Cl.NC(c1ccc(Cl)cc1)c1cccs1 (stereo unspecified)	25.34%	27.84%
C[S+]([O-])c1nncn1CCCc1ccc(Cl)cc1 (stereo unspecified)	13.68%	14.99%
[H][C@@]12CCCN1CCCN(c1nc(CCC)nc3c1cnn3C)C2	-9.005%	-9.904%
Cc1noc(C)c1CN(C)C(=O)C1CCCCN1S(C)(=O)=O (stereo unspecified)	15.07%	-16.77%
COc1ccc(CN2CC(O)CN(C(=O)OCC(C)(C)C)CC2=O)cc1 (stereo unspecified)	-1.271%	49.01%
Cc1nc(CN2CCCC(N(C)CCc3ccncc3)C2)no1 (stereo unspecified)	1.743%	8.86%
Cc1ccc(S(=O)(=O)NC(C)C#N)cc1Br (stereo unspecified)	-	-7.504%
CC(C)(C)OC(=O)N1CCN(c2ccc(F)cc2)CC1C(=O)O (stereo unspecified)	-4.572%	11.13%
COc1ccc(C(C)N(C)Cc2c(C3CC3)[nH]c3ncccc23)cc1.Cl (stereo unspecified)	27.64%	-15.93%
O=C(NC1CCCCC1)[C@H]1CNC[C@@H](COc2cccnc2)C1	-	14.17%
[H][C@]12CC[C@]([H])(CC(=O)NC1)N2C(=O)CCc1ccc2c(c1)OCO2	-	14.23%
CN(Cc1ccccc1)C(=O)CCS(=O)(=O)c1ccc2c(c1)OCCO2	-20.15%	-36.12%
[H][C@@]12CN(S(C)(=O)=O)C[C@]1(C(=O)N(C)C)CCC21CCN(C(C)=O)CC1	-54.59%	-15.27%
FC(F)(F)c1cccc(C2(CNCc3cc[nH]c3)CCOCC2)c1	-10.98%	12.17%
CCc1cnc(CN2CCCC(c3cc(C)[nH]n3)C2)o1 (stereo unspecified)	24.67%	-11.11%
Cc1cc2n(n1)CC(CNCc1cnn(C)c1)CN2 (stereo unspecified)	-	0.05247%
N#Cc1nccnc1N1CCC(C(O)c2cccs2)CC1 (stereo unspecified)	36.65%	13.92%
CCN1C(=O)C2(CCOCC2)c2cc(NC(=O)c3cnoc3C)ccc21	39.78%	-23.82%
COc1c(C2CCCN2CC(=O)N2CCCCC2)c(C)nn1C (stereo unspecified)	-13.18%	-2.956%
COc1ccc(-c2cc(C(=O)NCCn3ccnc3)n(C)n2)cc1	-6.108%	1.535%
Cc1cc(NC(=O)C(C)Nc2ccn(Cc3ccccn3)n2)on1 (stereo unspecified)	-	3.12%
CCn1ccnc1CN1CCCC1c1c(C)nn(C)c1OC (stereo unspecified)	-	-25.02%
OC(CN1CCN(Cc2nc(C3CC3)no2)CC1)c1ccccc1 (stereo unspecified)	-	-9.84%
CN(C)c1nc2ncc(Cl)cc2cc1C#N	-14.98%	-6.098%
Cc1cc(C(=O)NCC2CCC3(CC2)OCCO3)[nH]n1	14.26%	-11.14%
CCOC(CC)C(=O)NCc1cccc(N2CCCCC2=O)c1 (stereo unspecified)	-27.88%	11.34%
O=C(O)C(F)(F)F.[H][C@@]12C[C@@H](C(=O)NC)N(C(C)C)[C@]1([H])CN(C(=O)c1ccco1)C2	11.81%	-1.99%
Cc1cnccc1NCCn1ccnc1C1CCCCC1	-	18.88%
CCN(CC)C(CNS(=O)(=O)c1ccc(C(N)=O)cc1)c1ccco1 (stereo unspecified)	-4.915%	4.534%
CC(C)(C)c1nc(CN2CCCN(Cc3cccs3)CC2)no1	-	12.28%
O=C(O)c1cc(-c2cccnc2)cc(S(=O)(=O)N2CCCCCC2)c1	-11.76%	3.483%
CC(C)Cn1cnc2ccc(NC(=O)CCCn3cccn3)cc2c1=O	-19.91%	60.75%
Cc1nnc(NC(=O)NCc2ccoc2)s1	-	-12.19%
Cc1nnsc1C(=O)NCC1CCN(c2ccccn2)CC1	6.928%	-21.49%
CCN1CCN(C[C@@H]2CN(c3ncccc3C(F)(F)F)C[C@@H]2CO)CC1	-1.772%	0.5599%
COC1COC2(CCN(C(=O)c3cnc(C)cn3)CC2)C1 (stereo unspecified)	-21.76%	8.61%
CC(=O)N[C@@H]1C[C@H](c2ccc(OCCO)cc2)OC2(CCOCC2)C1	-20.19%	-19.81%
Cc1cnc(N2CC3(CCN(S(=O)(=O)C4CC4)C3)C2)nc1.O=C(O)C(F)(F)F	-9.858%	-19.97%
COc1ccnc(N(C)Cc2csc(C)n2)n1	20.04%	8.387%
Cc1nc(CNC(=O)Nc2cc(C(F)(F)F)c[nH]c2=O)cs1	9.752%	-2.701%
O=C(O)C(F)(F)F.O=C(O)C(F)(F)F.[H][C@@]12CCCO[C@]1([H])[C@H](OCc1ccccn1)CN2Cc1c(C)noc1C	-10.4%	-25.54%
O=C(CS(=O)(=O)c1ccccn1)NC1CCCc2ccccc21 (stereo unspecified)	4.843%	34.88%
CNc1cccc(C2CN(C(=O)c3c[nH]cn3)CCO2)n1 (stereo unspecified)	6.6%	12.48%

The first 4 entries again:

| compound | A | B |
|---|---|---|
| `Cc1noc(C)c1C(=O)N1CCC2(CCc3ccccc3C(=O)N2)C1` (stereo unspecified) | 28.07% | -10.43% |
| `CC(C)C(CNC(=O)Nc1cn[nH]c1)N1CCOCC1` (stereo unspecified) | - | -15.16% |
| `Cc1noc(C)c1CC(=O)NCC(C)N1CCOCC1` (stereo unspecified) | 29.75% | -5.175% |
| `O=C1CN(Cc2nnc(-c3ccc(Br)o3)o2)CCN1` | 21.49% | 51.83% |